According to paper PMC9907051:

Tested on: GST-VabHLH137
Test: EMSA
Conditions: unlabeled probe used as competitor; EMSA per manufacturer's instructions (Thermo Scientific), biotin-labeled probe; pH and temperature not stated; recombinant protein; protein details: GST (pGEX4T-1); label: biotin

“ATAAAGCACATGGAGTAT (double strand) [VaLAR2 promoter E-box probe]”: binds.

For at least one entry, the source does not settle the construct or the ends of the probe.
